pIC50: −log10 of the molar value. Structures were worked out from names or drawings and are uncertain.
How the values were obtained:
[1] = target: integrin α 4β1 (Homo sapiens, UniProt P05556+P13612); test: VCAM antagonistic activity (VCAM-1/α4β1 binding assay), Jurkat cells binding to VCAM-1; details: read-out: VCAM-1/α 4 β 1 linking antagonization activity IC50; Jurkat cells (human T cells) binding to recombinant human VCAM-1; room temperature, 30 minutes
Protocol: (Test Example) VCAM Antagonistic Activity (VCAM-1/α4β1 Binding Assay):
The capacity of a test substance antagonistic to the binding of cell strain Jurkat (ATCC TIB-152) of human T cells, known to express integrin α 4β1, to VCAM-1 was determined.
(§1) 100 μl/well of a solution (500 ng/ml) of recombinant human VCAM-1 (R & D systems) solution diluted with buffer A (0.1 M NaHCO3, pH 9.6) was added to a micro titer plate having 96 wells (Nunc Maxisorp). After the incubation at 4° C. overnight, unbound VCAM-1 was removed by washing once with PBS. After completion of the washing, a buffer (buffer B) obtained by diluting Block Ace® (Dainippon Pharmaceutical Co., Ltd.) with PBS to ¼ concentration was added in an amount of 150 μl/well. After the incubation at room temperature for 1 hour, buffer B was removed and the plate was washed with PBS once.
Jurkat cells were washed with Dulbecco modified Eagle medium (SIGMA, hereinafter referred to as “DMEM”) twice and then incubated in DMEM containing 10 μg/ml of Calcein-AM (Wako Pure Chemical Industries, Ltd.) at 37° C. in dark place for 30 minutes to label with fluorescence. The cells were again suspended in a binding buffer (20 mM HEPES, DMEM containing 0.1% BSA).
(§2) 50 μl of a test substance of various concentrations obtained by the dilution with the binding buffer was added to the plate. Immediately thereafter, 50 μl (final volume: 100 μl/well) of the fluorescent Jurkat cells (4×10^6 cells/ml) were added thereto, and they were incubated at room temperature for 30 minutes. After the shaking on a plate shaker (IKA MTS-4) at 800 rpm for 30 seconds, the solution was immediately removed to remove the unbound cells. The fluorescence quantity of the bound cells remaining in the wells was determined with a fluorescent plate reader (Wallac 1420 ARVO multi-label counter) (filter excitation wave length: 485 nm, emission wave length: 535 nm). The fluorescent strength thus obtained is proportional to the number of Jurkat cells bound to VCAM-1 and remaining on the plate. The binding rate of each test material in various concentrations was determined while the fluorescent strength of the test material-free well was determined to be 100%. The concentration IC50 for the 50% binding inhibition was calculated.

Chains of the proteins cited; added tags and fusions are not shown. Residues count along the entry.
UniProt P05556, 21-798 limits assumed: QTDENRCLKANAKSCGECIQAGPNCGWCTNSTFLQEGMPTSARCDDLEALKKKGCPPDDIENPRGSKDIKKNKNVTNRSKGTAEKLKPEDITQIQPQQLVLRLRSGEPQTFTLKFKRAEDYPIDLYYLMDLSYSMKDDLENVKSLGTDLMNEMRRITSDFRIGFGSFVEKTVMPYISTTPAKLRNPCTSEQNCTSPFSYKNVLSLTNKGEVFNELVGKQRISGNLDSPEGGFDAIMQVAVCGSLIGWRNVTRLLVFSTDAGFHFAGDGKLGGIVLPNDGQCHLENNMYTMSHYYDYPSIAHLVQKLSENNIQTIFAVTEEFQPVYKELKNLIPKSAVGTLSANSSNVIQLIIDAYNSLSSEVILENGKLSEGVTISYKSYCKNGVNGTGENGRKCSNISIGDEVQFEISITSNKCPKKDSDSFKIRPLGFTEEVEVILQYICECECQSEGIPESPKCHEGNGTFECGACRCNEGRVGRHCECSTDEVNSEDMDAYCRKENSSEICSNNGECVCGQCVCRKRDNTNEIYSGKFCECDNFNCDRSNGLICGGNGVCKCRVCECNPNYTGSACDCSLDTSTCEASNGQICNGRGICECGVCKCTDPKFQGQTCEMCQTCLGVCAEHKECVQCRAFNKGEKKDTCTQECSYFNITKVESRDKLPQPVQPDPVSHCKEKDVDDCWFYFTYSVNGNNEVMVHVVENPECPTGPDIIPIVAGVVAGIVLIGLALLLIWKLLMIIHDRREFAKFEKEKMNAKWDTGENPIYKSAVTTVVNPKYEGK
UniProt P13612, 34-1032 limits assumed: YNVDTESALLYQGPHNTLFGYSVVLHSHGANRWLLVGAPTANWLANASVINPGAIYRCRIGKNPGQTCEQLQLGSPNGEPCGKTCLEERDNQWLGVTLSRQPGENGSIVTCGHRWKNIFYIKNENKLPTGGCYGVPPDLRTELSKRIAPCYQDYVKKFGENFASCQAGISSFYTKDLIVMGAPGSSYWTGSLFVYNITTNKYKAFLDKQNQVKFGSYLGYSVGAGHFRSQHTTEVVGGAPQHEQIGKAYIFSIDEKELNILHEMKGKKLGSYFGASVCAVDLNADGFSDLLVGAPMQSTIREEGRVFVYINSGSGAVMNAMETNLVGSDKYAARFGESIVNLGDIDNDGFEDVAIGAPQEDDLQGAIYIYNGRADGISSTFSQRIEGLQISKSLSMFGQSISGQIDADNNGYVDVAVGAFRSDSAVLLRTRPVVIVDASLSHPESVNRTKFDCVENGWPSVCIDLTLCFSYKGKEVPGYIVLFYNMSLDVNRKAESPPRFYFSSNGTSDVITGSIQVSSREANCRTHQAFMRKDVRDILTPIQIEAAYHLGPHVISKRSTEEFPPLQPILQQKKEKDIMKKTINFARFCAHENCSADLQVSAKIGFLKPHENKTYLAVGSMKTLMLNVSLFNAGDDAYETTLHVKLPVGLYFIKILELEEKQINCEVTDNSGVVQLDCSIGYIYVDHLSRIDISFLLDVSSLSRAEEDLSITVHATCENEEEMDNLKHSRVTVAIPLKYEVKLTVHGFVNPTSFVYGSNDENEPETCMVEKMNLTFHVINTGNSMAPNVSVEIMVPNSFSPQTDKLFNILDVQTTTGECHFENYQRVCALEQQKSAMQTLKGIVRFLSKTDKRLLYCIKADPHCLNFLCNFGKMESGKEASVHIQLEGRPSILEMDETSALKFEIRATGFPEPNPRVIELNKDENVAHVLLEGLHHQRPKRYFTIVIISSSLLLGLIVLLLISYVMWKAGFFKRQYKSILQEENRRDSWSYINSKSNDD
UniProt P26010, 20-798 limits assumed: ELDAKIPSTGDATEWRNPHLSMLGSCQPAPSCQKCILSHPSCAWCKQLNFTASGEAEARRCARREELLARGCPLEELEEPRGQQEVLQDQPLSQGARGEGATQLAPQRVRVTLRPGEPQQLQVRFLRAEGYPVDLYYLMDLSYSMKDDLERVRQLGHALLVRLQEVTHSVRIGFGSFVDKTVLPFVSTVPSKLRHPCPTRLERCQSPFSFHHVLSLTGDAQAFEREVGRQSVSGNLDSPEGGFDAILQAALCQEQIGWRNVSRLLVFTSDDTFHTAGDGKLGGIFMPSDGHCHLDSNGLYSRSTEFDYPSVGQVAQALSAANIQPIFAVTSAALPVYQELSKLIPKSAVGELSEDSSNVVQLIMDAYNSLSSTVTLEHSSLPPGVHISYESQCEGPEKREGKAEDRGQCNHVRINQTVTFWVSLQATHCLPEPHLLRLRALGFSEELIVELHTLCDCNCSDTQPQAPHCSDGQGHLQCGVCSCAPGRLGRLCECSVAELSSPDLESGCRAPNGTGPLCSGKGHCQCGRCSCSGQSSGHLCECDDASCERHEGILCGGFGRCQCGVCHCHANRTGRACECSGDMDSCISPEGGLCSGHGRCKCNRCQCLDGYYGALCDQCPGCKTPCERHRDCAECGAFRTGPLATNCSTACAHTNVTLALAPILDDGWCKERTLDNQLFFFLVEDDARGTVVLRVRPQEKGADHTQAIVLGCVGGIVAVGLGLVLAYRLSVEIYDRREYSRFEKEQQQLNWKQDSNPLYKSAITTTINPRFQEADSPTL

[2] = target: integrin α 4β7 (Homo sapiens, UniProt P13612+P26010); test: VCAM antagonistic activity (VCAM-1/α4β7 binding assay), RPMI-8866 cells binding to VCAM-1; details: read-out: VCAM-1/α 4 β 7 linking antagonization activity IC50; RPMI-8866 cells (human B cells) binding to recombinant human VCAM-1; binding buffer containing 4 mM of MnCl2; room temperature, 30 minutes
Protocol: (Test Example) VCAM Antagonistic Activity (VCAM-1/α4β7 Binding Assay):
The capacity of a test substance antagonistic to the binding of lymphoma cell strain RPMI-8866 of human B cells, known to express integrin α 4β7, to VCAM-1 was determined.
as §1
RPMI-8866 cells were incubated in DMEM containing 10 μg/ml of Calcein-AM (Wako Pure Chemical Industries, Ltd.) at 37° C. for 30 minutes to label with fluorescence. The cells were again suspended in a binding buffer (20 mM HEPES, DMEM containing 0.1% BSA) containing 4 mM of MnCl2.
as §2, with “RPMI-8866” for “Jurkat”

| pIC50 [1] | pIC50 [2] | Structure (SMILES) |
| --- | --- | --- |
| 5.68 | 6.62 | O=C(NC(Cc1ccc(OCc2c(Cl)cccc2Cl)cc1)C(=O)O)c1cc(N2CCCC(O)C2)ccc1[N+](=O)[O-] (centres unmarked) |
| 5.49 | 6.96 | CCN(CCCCO)c1ccc([N+](=O)[O-])c(C(=O)NC(Cc2ccc(OCc3c(Cl)cccc3Cl)cc2)C(=O)O)c1 (centres unmarked) |
| 5.03 | 6.05 | CC(C)N(c1ccc([N+](=O)[O-])c(C(=O)NC(Cc2ccc(OCc3c(Cl)cccc3Cl)cc2)C(=O)O)c1)C(C)C (centres unmarked) |
| 5.72 | 6.52 | O=C(NC(Cc1ccc(OCc2c(Cl)cccc2Cl)cc1)C(=O)O)c1cc(N2CCCCC2CO)ccc1[N+](=O)[O-] (centres unmarked) |
